Laboratory results: article PMC10733359
Results are given in words; binding and its absence hold for the method and conditions named. In cells and extracts the contact can be indirect. Some binding calls cover weakened binding; strength is not graded here.

Amino acid sequences for entries named in this document (tags omitted).
UniProt Q6A4J8: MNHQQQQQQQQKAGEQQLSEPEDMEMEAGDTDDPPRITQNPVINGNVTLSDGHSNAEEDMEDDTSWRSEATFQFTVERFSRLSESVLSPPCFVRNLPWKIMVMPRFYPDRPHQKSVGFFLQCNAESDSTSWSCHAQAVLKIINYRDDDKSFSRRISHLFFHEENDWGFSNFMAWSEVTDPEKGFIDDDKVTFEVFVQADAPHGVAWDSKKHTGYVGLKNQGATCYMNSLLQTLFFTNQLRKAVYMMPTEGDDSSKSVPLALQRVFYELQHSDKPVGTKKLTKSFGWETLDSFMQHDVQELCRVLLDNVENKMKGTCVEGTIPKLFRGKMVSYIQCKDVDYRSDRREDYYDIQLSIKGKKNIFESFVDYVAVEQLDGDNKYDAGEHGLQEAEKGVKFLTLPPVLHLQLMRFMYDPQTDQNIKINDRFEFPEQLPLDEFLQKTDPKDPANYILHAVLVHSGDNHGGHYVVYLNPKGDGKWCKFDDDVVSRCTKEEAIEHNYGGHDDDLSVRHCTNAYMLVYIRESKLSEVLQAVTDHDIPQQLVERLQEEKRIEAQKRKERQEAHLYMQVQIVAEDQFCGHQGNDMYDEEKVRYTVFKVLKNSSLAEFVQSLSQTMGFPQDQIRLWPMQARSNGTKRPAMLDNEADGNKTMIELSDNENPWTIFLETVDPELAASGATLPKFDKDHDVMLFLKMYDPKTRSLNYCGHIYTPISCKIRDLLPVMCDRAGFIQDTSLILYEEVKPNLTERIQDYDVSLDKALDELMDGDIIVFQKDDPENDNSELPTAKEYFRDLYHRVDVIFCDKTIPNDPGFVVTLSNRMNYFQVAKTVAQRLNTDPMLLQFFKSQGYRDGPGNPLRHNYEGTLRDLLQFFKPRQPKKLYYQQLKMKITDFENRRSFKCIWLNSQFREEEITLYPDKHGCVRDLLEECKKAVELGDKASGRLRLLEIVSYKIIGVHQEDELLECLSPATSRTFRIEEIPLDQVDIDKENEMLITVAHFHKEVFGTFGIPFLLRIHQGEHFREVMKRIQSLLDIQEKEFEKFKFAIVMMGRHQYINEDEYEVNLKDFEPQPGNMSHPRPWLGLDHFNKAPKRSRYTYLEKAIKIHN

Target: de-ubiquitinase USP7, mouse (mouse (endogenous in thalamus)) (UniProt Q6A4J8)
Test: co-IP; USP7 IP from mononucleosome samples of thalamus of control mice, western blot; saline and cocaine treatment

binding: binds
B1: melanoma-associated antigen D1 (Maged1), mouse (protein, UniProt Q9QYH6 1-775)
chain: MAQKPDGGAGLRGFQAEASVEDSALLVQTLMEAIQISEAPPTSQATAAASGPNASPQSSQPPTANEKADTEVSAAAARPKTGFKAQNATTKGPNDYSQARNAKEMPKNQSKAAFKSQNGTPKGPHAASDFSQAAPTGKSAKKSEMAFKGQNSTKAGPGTTYNFPQSPSANEMTNNQPKTAKAWNDTTKVPGADAQTQNVNQAKMADVGTSAGISEADGAAAQTSADGSQTQNVESRTIIRGKRTRKVNNLNVEENNSGDQRRASLASGNWRSAPVPVTTQQNPPGAPPNVVWQTPLAWQNPSGWQNQTARQTPPAARQSPPARQTPSAWQNPVAWQNPVIWPNPVIWQNPVIWPNPIVWPGPIVWPNPMAWQSTPGWQSPPSWQAPPSWQSPQDWQGPPDWQVPPDWSMPPDWSFPSDWPFPPDWIPADWPIPPDWQNLRPSPNLRSSSNSRASQNQGPPQPRDVALLQERANKLVKYLMLKDYTKVPIKRSEMLRDIIREYTDVYPEIIERACFVLEKKFGIQLKEIDKEEHLYILISTPESLAGILGTTKDTPKLGLLLVILGIIFMNGNRATEAVLWEALRKMGLRPGVRHPLLGDLRKLLTYEFVKQKYLDYRRVPNSNPPEYEFLWGLRSYHETSKMKVLRFIAEVQKRDPRDWTAQFMEAADEALDALDAAAAEAEARAEARNRMGIGDEAVSGPWSWDDIEFELLTWDEEGDFGDPWSRIPFTFWARYHQNARSRFPQAFTGPIIGPSGTATANFAANFGAIGFFWVE
